Measured values: the supplement of paper PMC10849652
Some of the results follow.

The chains behind the UniProt entries cited, without tags or fusion partners. Where a name states a change or a piece, a line headed by the entry shows the natural chain unless it says otherwise.
UniProt Q8TBF5: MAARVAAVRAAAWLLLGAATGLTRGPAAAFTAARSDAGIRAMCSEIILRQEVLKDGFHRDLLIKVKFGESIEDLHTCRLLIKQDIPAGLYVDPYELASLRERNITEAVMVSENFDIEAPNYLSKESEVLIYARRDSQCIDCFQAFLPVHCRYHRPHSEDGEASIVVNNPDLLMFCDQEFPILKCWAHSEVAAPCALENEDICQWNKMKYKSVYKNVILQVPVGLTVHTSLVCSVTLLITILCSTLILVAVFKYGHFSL
UniProt O43164: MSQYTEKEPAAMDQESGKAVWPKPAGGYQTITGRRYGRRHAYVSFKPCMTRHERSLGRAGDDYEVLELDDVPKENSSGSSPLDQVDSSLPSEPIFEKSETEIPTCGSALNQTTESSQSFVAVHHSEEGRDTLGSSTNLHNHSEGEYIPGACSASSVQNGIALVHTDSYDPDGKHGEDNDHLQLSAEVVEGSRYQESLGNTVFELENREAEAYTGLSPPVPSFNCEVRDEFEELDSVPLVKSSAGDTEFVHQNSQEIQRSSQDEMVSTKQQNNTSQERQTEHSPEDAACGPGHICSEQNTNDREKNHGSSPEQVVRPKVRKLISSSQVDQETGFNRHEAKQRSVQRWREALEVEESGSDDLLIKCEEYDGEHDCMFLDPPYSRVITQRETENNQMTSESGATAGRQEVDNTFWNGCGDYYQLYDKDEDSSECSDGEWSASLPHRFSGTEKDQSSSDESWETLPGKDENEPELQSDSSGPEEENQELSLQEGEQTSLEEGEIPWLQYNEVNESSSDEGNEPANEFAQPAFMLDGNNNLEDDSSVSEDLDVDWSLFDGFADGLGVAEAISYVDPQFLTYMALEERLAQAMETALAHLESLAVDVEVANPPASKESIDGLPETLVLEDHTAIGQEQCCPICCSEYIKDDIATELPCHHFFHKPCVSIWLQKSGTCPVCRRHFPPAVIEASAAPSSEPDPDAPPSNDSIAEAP
UniProt P17858: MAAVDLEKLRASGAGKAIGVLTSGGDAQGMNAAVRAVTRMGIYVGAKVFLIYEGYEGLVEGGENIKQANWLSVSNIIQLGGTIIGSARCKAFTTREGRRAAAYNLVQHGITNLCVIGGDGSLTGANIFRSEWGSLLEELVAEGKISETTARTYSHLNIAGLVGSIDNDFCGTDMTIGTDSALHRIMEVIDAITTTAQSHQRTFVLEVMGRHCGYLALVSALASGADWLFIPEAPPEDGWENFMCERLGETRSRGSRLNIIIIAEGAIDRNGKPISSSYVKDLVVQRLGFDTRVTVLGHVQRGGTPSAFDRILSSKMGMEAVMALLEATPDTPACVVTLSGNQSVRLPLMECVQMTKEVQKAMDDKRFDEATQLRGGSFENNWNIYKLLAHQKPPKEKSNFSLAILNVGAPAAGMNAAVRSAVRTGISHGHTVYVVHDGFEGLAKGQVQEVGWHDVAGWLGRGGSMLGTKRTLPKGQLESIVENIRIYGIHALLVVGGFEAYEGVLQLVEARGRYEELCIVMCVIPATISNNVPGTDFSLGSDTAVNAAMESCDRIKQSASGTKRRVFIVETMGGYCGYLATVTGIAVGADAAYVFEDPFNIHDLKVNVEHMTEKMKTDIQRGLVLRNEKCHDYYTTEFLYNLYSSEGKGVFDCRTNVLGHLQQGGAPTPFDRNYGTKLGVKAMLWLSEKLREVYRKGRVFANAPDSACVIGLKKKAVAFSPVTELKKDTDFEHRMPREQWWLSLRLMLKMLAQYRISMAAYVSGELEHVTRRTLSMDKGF
UniProt Q9BRB3: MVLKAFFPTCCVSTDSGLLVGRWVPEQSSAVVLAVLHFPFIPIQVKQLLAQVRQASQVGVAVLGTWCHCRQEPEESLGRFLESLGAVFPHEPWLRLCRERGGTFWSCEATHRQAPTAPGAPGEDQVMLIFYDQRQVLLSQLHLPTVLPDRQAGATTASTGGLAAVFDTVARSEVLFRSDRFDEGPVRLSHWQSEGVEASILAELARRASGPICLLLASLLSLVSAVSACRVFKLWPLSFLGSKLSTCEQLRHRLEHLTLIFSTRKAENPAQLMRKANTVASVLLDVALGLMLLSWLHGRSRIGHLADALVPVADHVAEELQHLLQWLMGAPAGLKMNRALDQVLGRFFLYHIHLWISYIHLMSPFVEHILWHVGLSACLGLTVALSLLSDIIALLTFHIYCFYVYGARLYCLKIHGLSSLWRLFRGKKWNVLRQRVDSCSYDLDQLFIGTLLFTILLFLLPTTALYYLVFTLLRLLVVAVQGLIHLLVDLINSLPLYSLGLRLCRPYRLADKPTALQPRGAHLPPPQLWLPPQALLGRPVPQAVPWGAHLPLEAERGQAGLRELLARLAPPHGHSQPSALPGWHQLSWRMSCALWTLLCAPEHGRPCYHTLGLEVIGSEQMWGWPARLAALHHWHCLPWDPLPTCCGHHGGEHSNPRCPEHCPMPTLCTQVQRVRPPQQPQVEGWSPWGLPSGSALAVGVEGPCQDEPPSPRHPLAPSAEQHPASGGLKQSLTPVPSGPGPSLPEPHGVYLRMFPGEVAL
UniProt P19174: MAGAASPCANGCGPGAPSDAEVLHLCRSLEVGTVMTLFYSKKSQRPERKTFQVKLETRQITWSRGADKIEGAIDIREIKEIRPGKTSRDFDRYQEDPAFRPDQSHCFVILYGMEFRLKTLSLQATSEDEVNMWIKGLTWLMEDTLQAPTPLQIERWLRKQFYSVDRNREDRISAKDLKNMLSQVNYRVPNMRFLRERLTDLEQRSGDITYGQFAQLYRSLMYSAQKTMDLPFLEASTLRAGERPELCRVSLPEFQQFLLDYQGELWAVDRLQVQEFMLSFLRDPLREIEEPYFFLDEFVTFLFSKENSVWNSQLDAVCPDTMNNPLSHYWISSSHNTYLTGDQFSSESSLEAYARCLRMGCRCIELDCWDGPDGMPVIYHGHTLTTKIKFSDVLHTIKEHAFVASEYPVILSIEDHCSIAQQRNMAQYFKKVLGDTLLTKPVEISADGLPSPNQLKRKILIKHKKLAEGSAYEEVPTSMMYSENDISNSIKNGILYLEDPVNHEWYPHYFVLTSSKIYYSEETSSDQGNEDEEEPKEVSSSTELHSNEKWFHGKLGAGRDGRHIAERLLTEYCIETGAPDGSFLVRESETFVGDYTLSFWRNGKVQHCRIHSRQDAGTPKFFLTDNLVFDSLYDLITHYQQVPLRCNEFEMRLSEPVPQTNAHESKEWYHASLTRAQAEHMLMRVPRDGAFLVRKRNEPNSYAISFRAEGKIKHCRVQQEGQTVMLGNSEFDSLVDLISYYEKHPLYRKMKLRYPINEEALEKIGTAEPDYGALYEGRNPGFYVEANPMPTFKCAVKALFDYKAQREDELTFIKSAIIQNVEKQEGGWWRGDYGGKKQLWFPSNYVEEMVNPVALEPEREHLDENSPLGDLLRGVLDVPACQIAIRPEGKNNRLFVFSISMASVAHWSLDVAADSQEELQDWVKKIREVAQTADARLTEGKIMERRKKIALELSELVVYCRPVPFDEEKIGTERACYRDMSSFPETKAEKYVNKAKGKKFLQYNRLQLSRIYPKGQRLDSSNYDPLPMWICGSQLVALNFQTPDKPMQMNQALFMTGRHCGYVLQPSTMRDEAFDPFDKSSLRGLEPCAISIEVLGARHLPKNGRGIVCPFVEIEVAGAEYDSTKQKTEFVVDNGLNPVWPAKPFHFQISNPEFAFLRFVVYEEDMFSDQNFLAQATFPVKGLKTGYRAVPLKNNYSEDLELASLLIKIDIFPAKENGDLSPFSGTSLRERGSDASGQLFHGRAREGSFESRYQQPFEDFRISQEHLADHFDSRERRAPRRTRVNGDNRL
UniProt P16885: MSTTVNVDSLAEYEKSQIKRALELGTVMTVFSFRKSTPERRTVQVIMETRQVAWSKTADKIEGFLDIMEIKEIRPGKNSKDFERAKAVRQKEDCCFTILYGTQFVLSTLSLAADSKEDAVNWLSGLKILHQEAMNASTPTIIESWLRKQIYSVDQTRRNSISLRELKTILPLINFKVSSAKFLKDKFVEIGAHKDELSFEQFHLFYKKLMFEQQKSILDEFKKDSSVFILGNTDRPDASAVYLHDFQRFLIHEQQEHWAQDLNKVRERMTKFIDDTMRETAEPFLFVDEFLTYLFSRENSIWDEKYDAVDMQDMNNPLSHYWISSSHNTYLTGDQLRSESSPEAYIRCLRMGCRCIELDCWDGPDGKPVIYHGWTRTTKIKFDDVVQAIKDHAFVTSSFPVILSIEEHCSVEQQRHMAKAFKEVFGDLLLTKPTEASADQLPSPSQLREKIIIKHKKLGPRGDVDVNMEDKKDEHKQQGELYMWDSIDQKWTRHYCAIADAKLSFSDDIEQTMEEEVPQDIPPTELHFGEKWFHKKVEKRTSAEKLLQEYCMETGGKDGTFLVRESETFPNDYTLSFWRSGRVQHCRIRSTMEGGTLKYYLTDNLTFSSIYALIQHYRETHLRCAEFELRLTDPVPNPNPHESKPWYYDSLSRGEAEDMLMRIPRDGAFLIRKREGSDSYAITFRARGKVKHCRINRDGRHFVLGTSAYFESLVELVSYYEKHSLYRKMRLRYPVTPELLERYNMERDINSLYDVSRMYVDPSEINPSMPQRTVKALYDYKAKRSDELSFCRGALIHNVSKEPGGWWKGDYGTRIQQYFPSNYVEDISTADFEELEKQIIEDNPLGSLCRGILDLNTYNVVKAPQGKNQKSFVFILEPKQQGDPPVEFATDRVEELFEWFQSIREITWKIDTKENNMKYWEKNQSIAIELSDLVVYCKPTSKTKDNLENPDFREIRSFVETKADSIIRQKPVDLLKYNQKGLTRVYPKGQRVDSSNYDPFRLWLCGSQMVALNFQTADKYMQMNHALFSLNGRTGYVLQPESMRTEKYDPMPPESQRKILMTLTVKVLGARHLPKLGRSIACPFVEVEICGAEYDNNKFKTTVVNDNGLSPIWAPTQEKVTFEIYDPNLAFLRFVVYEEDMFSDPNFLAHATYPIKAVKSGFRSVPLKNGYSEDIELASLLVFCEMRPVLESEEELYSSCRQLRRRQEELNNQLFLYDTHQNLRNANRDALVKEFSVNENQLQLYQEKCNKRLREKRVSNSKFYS
UniProt P48426: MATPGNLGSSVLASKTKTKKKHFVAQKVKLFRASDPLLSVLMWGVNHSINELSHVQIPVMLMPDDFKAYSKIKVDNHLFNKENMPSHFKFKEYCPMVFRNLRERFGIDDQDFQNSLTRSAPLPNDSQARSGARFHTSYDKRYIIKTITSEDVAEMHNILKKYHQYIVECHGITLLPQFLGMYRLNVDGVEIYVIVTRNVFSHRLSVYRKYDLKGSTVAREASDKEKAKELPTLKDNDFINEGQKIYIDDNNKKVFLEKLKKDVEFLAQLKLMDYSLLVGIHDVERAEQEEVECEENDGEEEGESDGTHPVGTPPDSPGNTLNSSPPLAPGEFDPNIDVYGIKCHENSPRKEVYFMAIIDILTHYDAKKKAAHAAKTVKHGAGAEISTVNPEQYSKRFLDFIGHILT
UniProt Q96BK5: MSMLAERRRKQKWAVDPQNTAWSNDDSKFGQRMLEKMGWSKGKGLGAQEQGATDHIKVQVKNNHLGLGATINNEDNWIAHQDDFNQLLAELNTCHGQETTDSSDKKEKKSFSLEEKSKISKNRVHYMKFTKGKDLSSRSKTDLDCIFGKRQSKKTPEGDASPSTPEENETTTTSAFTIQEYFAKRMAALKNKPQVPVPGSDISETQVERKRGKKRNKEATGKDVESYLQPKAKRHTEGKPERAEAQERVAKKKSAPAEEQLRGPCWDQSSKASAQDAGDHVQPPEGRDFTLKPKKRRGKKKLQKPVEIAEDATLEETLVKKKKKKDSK
UniProt Q9NUJ7: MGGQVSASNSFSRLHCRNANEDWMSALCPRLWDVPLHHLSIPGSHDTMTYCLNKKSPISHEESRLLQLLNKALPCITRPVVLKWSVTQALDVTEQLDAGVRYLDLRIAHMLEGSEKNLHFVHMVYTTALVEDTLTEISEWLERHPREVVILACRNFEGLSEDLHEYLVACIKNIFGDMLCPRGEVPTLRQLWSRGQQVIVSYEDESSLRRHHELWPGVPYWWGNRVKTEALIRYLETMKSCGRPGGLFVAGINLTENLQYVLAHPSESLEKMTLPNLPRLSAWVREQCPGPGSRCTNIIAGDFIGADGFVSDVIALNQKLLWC
UniProt O60925, whole entry, looked up: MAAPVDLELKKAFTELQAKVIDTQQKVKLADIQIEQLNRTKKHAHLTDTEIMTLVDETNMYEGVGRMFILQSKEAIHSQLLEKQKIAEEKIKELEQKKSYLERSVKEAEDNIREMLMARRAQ
UniProt P18669: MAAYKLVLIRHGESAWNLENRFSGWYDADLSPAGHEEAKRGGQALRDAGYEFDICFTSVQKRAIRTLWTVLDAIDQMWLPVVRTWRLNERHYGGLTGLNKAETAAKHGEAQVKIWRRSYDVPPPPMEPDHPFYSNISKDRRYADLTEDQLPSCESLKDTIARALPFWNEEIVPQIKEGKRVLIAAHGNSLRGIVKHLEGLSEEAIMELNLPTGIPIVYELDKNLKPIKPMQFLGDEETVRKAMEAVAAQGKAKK

How the values were obtained:
Assay in all cases: log2 fold change, soluble protein after heating vs DMSO (PISA); higher = thermal stabilisation; K562 cells, 10 uM, 30 min; active = over 0.2 and 3.5 SD of the protein, either way, in both replicates (recomputed)
[1] = compound: C1=CC=C(C=C1)[C@H](COC2=CC3=C(C=C2)NC(=O)N3)NC(=O)C4=CC=CN(C4=O)CC5=CC(=C(C=C5)F)F
How it was run: (§1)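 Values are thermal stability changes relative to control samples and are taken from duplicates. They are stated as log2 fold changes. Before quantification by TMTpro 16plex LC-MS/MS with equalised channel sums, K562 cells at 2×10^6 cells/mL were treated with 10 μM compound for 30 min, heated in aliquots for 3 min across 48°C-58°C, pooled, extracted in PBS with 0.5% NP-40 at 4°C, and centrifuged at 21,000xg for 90 min to give the soluble supernatant.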

[2] = compound: CC1=C(SC2=C1C(=N[C@H](C3=NN=C(N32)C)CC(=O)N)C4=CC=C(C=C4)Cl)C
How it was run: as §1

[3] = compound: CC1=C2C(=CC=C1)N=C(N(C2=O)C3=CC=CC=C3C)CN4C=NC5=C(N=CN=C54)N
How it was run: as §1

[4] = compound: Cc1sc2c(c1C)C(c1ccc(Cl)cc1)=N[C@@H](CC(=O)OC(C)(C)C)c1nnc(C)n1-2
How it was run: as §1

[5] = compound: c1ccc([C@@H]2C[C@H]2NC2CCNCC2)cc1
How it was run: as §1

Measured: log2 fold change

PIAS1 isoform 2 (UniProt O75925)
inactive: [1] 0.021

PIEZO1 (UniProt Q92508)
inactive: [1] 0.04 | [2] 0.056 | [3] -0.028 | [4] -0.001 | [5] 0.018

PIGX isoform 2 (UniProt Q8TBF5)
inactive: [1] 0.022 | [2] 0.177 | [3] -0.019 | [4] 0.054 | [5] 0.163

PIN4 isoform 2 (UniProt Q9Y237)
inactive: [1] -0.016 | [2] 0.035 | [3] 0.008 | [4] -0.01 | [5] 0.015

PJA2 (UniProt O43164)
inactive: [1] 0.005 | [2] -0.042 | [3] 0.021 | [4] 0.006 | [5] 0.024

Quoted at random: 2 records from the list, in no set order.
PIEZO1 (UniProt Q92508)
inactive: [1] 0.04 | [2] 0.056 | [3] -0.028 | [4] -0.001 | [5] 0.018

PIGX isoform 2 (UniProt Q8TBF5)
inactive: [1] 0.022 | [2] 0.177 | [3] -0.019 | [4] 0.054 | [5] 0.163

Carrying on:

PFKFB1 (UniProt P16118)
inactive: [1] 0

PHKG2 (UniProt P15735)
inactive: [1] 0.028 | [2] -0.033 | [3] 0.013 | [4] 0.051 | [5] 0.026

PFKL isoform 2 (UniProt P17858)
inactive: [1] 0.014 | [2] 0.026 | [3] 0.056 | [4] -0.017 | [5] 0.016

PIGK (UniProt Q92643)
inactive: [1] 0.032 | [2] -0.006 | [3] 0.047 | [4] -0.037 | [5] -0.04

PIGQ (UniProt Q9BRB3)
inactive: [1] -0.057 | [2] -0.011 | [3] 0.262 | [4] -0.161 | [5] -0.014

PLCG1 isoform 2 (UniProt P19174)
inactive: [1] -0.059 | [2] 0.038 | [3] 0.033 | [4] 0.063 | [5] -0.028

PIGH (UniProt Q14442)
inactive: [1] 0.044 | [2] 0.064 | [3] 0.144 | [4] -0.046 | [5] -0.024

PLCD1 isoform 2 (UniProt P51178)
inactive: [1] -0.021 | [2] 0.094 | [3] 0.004 | [4] 0.056 | [5] -0.06

PLCG2 (UniProt P16885)
inactive: [1] -0.034

PLD1 (UniProt Q13393)
inactive: [1] 0.097 | [2] -0.039 | [3] 0.005 | [4] 0.062 | [5] -0.102

PFKFB2 (UniProt O60825)
inactive: [1] 0.044 | [2] 0.048 | [3] 0.028 | [4] -0.014 | [5] 0.007

PGGT1B (UniProt P53609)
inactive: [1] 0.025 | [2] 0.066 | [3] 0.051 | [4] -0.018 | [5] -0.004

PIP4K2A (UniProt P48426)
inactive: [1] -0.091 | [2] 0.032 | [3] 0.049 | [4] 0.033 | [5] -0.024

PLCL1 (UniProt Q15111)
inactive: [1] 0.12 | [2] 0.073 | [3] 0.165 | [4] -0.029 | [5] 0.052

PINX1 (UniProt Q96BK5)
inactive: [1] 0.155 | [2] -0.547 | [3] -0.365 | [4] 0.382 | [5] 0.177

PLAA (UniProt Q9Y263)
inactive: [1] -0.025 | [2] 0.021 | [3] 0.063 | [4] 0.002 | [5] 0.008

PFAS (UniProt O15067)
inactive: [1] -0.08 | [2] 0.021 | [3] 0.144 | [4] 0.014 | [5] -0.065

PLCXD1 (UniProt Q9NUJ7)
inactive: [1] -0.061

PFKM (UniProt F8VTQ3)
inactive: [1] 0.01

PFDN1 (UniProt O60925)
inactive: [1] -0.102 | [2] 0.155 | [3] 0.061 | [4] -0.171 | [5] -0.061

PGAM1 (UniProt P18669)
inactive: [1] -0.002 | [2] 0.004 | [3] -0.015 | [4] -0.007 | [5] 0.006

PLEKHB2 isoform 2 (UniProt Q96CS7)
inactive: [1] 0.222

PEX6 (UniProt Q13608)
inactive: [1] -0.02 | [2] 0.035 | [3] 0.033 | [4] -0.092 | [5] 0.006
